Assay results from the supplement of paper PMC5949888.
± gives the standard deviation of the averaged measurements. Most values lie at the floor of the assay. Slopes are relative: functional sequences can read slightly below zero.

Tested on: Saccharomyces cerevisiae PS128 hsf1 delta, HSF1(1-493) fusion
Assay: growth estimate (transactivation domain function in HSF1 fusion, heat-shock survival) (a.u. (slope of normalised read count over time)); higher = stronger growth at 37°C, i.e. more transactivation activity
Details: library: random library

| Substance | growth estimate |
| --- | --- |
| GTSKTTCLIGRAPLWDAIIY | < -0.25 |
| SCYTSHLAGLGA | -0.203 |
| NEGFEQSSGRHPTRVKAAQY | < -0.25 |
| GRHVDIGVGGPPRRFSR | < -0.25 |
| EEWGVGQGPFRNRHAALGLW | < -0.25 |
| RVNCRSES | < -0.25 |
| PYMSMSSSFVVGLRNTTLGP | < -0.25 |
| EPSFGTTHSPFRVRVGTFVL | < -0.25 |
| YWMRRRTGTRTLGVHRGQER | < -0.25 |
| PYGRIHSYITPGGGLWPVRR | < -0.25 |
| IVQGLSMETHT | < -0.25 |
| QALLRRYHMMCSDSLGRFGA | < -0.25 |
| LRGGQGTDWPIVFNTYQRQP | < -0.25 |
| PYILDDDGVIPPNTTGSCPV | < -0.25 |
| PGDLVG | < -0.25 |
| PVRTTKDLAKSAKQLFVIRE | < -0.25 |
| PRIGSPRHTNVRRSERSDAR | < -0.25 |
| RKPA | < -0.25 |
| ACRESAQQDPEAS | < -0.25 |
| KRNCRYNGPS | < -0.25 |
| MGGQMRFCPLWAQ | < -0.25 |
| SVCLDTGLEREMTS | < -0.25 |
| SRRGTTRLYCVMACG | < -0.25 |
| ARRRQRLQLGA | < -0.25 |
| RRIRWSILVLAQSAEVCFGP | < -0.25 |
| KFLYLRGEESRLIATHKDQH | < -0.25 |

| Substance | growth estimate |
| --- | --- |
| RHGVINFWRHCITVGQPFNL | < -0.25 |
| RRLMSLVSVMKKFGQLLHLA | < -0.25 |
| HPREML | < -0.25 |
| DQWH | < -0.25 |
| GYGLAQRRGSLKNPGSQHDT | < -0.25 |
| NLRAS | < -0.25 |
| LQRGTCRTSRNPA | < -0.25 |
| VDPRDTPHTIEIHKIQVTLL | < -0.25 |
| APGLLL | < -0.25 |
| RREDRASPAFPI | < -0.25 |
| GSVDGILVSIDRGQCVGYVD | < -0.25 |
| RSLVGTTLDCAKGQQFEIRF | < -0.25 |
| KMADNQE | < -0.25 |
| TVSR | < -0.25 |
| NLPTDQPHVNVCAKWHGKMI | < -0.25 |
| WYSSVIGRWCQRLV | < -0.25 |
| GPYYTPAMGHTGPSNKKICA | < -0.25 |
| FWGCDQGVYELYRHVR | -0.234 |
| RVLRRPRYPRGRSNPAVGSE | < -0.25 |
| RKTRF | < -0.25 |
| IRAADRFTCTTLTGRGGTPP | < -0.25 |
| RGTGAPNHLRDPELHCVWRA | < -0.25 |
| GLIRGHIWPV | < -0.25 |
| QANPSTLTARSDWQRRKICS | < -0.25 |
| SVRPDAMRFLLTRP | < -0.25 |
| ASRRCCQVQRAAVWRCVSRP | < -0.25 |

| Substance | growth estimate |
| --- | --- |
| RSLLNALGAYSCIPCHSSGK | < -0.25 |
| VNRGLACSVGPFFETRRLGF | < -0.25 |
| SAQWYRH | < -0.25 |
| EWIRLEGRAIVTIGIPFILY | < -0.25 |
| VLQVVACFRERTQSLTALPS | < -0.25 |
| SCGTRRAACIVMVSVGWYTQ | < -0.25 |
| LLIAHSVIFILPLSGRNLSM | < -0.25 |
| MARGLQPGPGTAFRRHEILS | < -0.25 |
| FPS | -0.248 ± 0.003 |
| TDRKSHAGVQRSRFYFCSLS | < -0.25 |
| ASMYVKAKYPPGSSIVALFP | < -0.25 |
| DMGPM | < -0.25 |
| KLKTCSELAYAPTKLWVY | < -0.25 |
| RSFFYYRTERVRI | < -0.25 |
| LEPIWH | < -0.25 |
| KAVLARYWPVRQFIRDGQLS | < -0.25 |
| CSLAPFLVRVGVLRKNI | < -0.25 |
| SVMSIYATSNVASNNPINRS | < -0.25 |
| IAKDGSWNGKATVKRQVSTR | < -0.25 |
| RWASLHGPRRGRTVADQRVS | < -0.25 |
| ILPLSSYAGTGTAARSPGYQ | < -0.25 |
| VRTFVKFGRWPCWFSLCVWG | < -0.25 |
| VCHWITGSGSNGGVCVQM | < -0.25 |
| RSRKGGRVATRWMWTQGHNR | < -0.25 |
| GPGSRHTIKWVRVNFDMRHQ | < -0.25 |
| GGRP | < -0.25 |

A second format for some results above.
Substance | growth estimate
GTSKTTCLIGRAPLWDAIIY | < -0.25
SCYTSHLAGLGA | -0.203
GRHVDIGVGGPPRRFSR | < -0.25
RVNCRSES | < -0.25
EPSFGTTHSPFRVRVGTFVL | < -0.25
YWMRRRTGTRTLGVHRGQER | < -0.25
PYGRIHSYITPGGGLWPVRR | < -0.25
IVQGLSMETHT | < -0.25
QALLRRYHMMCSDSLGRFGA | < -0.25
PYILDDDGVIPPNTTGSCPV | < -0.25
PVRTTKDLAKSAKQLFVIRE | < -0.25
RKPA | < -0.25
ACRESAQQDPEAS | < -0.25
MGGQMRFCPLWAQ | < -0.25
SRRGTTRLYCVMACG | < -0.25
ARRRQRLQLGA | < -0.25
KFLYLRGEESRLIATHKDQH | < -0.25
HPREML | < -0.25
DQWH | < -0.25
GYGLAQRRGSLKNPGSQHDT | < -0.25
NLRAS | < -0.25
LQRGTCRTSRNPA | < -0.25
APGLLL | < -0.25
RREDRASPAFPI | < -0.25
GSVDGILVSIDRGQCVGYVD | < -0.25
RSLVGTTLDCAKGQQFEIRF | < -0.25
TVSR | < -0.25
WYSSVIGRWCQRLV | < -0.25
FWGCDQGVYELYRHVR | -0.234
RVLRRPRYPRGRSNPAVGSE | < -0.25
RKTRF | < -0.25
GLIRGHIWPV | < -0.25
QANPSTLTARSDWQRRKICS | < -0.25
ASRRCCQVQRAAVWRCVSRP | < -0.25
VNRGLACSVGPFFETRRLGF | < -0.25
SAQWYRH | < -0.25
LLIAHSVIFILPLSGRNLSM | < -0.25
MARGLQPGPGTAFRRHEILS | < -0.25
FPS | -0.248 ± 0.003
TDRKSHAGVQRSRFYFCSLS | < -0.25
DMGPM | < -0.25
RSFFYYRTERVRI | < -0.25
KAVLARYWPVRQFIRDGQLS | < -0.25
SVMSIYATSNVASNNPINRS | < -0.25
IAKDGSWNGKATVKRQVSTR | < -0.25
VCHWITGSGSNGGVCVQM | < -0.25
GPGSRHTIKWVRVNFDMRHQ | < -0.25
GGRP | < -0.25

An excerpt of these results, with tabs:
Substance	growth estimate
SCYTSHLAGLGA	-0.203
NEGFEQSSGRHPTRVKAAQY	< -0.25
GRHVDIGVGGPPRRFSR	< -0.25
EEWGVGQGPFRNRHAALGLW	< -0.25

(continued)

| Substance | growth estimate |
| --- | --- |
| VWVTDMGYK | < -0.25 |
| YASYYSSWEYWNPRPRRCNN | < -0.25 |
| LVSGNAWAAVNKRPFLQRGA | < -0.25 |
| SQGVHPGIMRPTHMTKLGLG | -0.248 |
| PYAKRATNGAKDLFC | < -0.25 |
| LPGLLTSCPLTQCAGWNFTS | < -0.25 |
| LDVETSIK | < -0.25 |
| PRPTVGNMYGSFRSRMIGAF | < -0.25 |
| LRI | -0.232 ± 0.026 |
| ACRSRSTRHCCAYKRHAVQY | < -0.25 |
| AGVWYKLTPTRNDPVSLVGC | < -0.25 |
| KYLCGRFVIRTIGDWVVFRQ | < -0.25 |
| VRL | < -0.25 |
| PEAFGVGHSMAHVWNHPLVS | < -0.25 |
| SVPACDGSFRGPHRSTAHRV | < -0.25 |
| NCLTDGDRNVAAGTLHNCML | < -0.25 |
| REFICNSSNSRILVRAGGSF | < -0.25 |
| VCSPFFPLASSNSRGM | < -0.25 |
| SISSYSPETILYLLESLITG | < -0.25 |
| NFETSIAAL | < -0.25 |
| PEALWV | < -0.25 |
| INGPKWILVYSGPAGVGL | < -0.25 |
| RVPQAGARLSPGPCVYWGRC | < -0.25 |
| FRIRSCVDGYGVDIAMSRKV | < -0.25 |
| SPNKTVVTRDQRTRTDLWG | < -0.25 |
| WRRTTKLSNFSPDTTGADGH | < -0.25 |

| Substance | growth estimate |
| --- | --- |
| ARGRRRHLRGLGRDIKRLKR | < -0.25 |
| RTGMIGLIHCDGRWVLINVR | < -0.25 |
| ESRTSVRLWLKPLAYQRFRR | < -0.25 |
| VYLESRYSLSLCLSCSRPDR | < -0.25 |
| GFNGG | < -0.25 |
| GGNTCGAISSRRH | < -0.25 |
| VRHSGIILAT | < -0.25 |
| HSPDKEILIRQNGIKPANWK | < -0.25 |
| GSGLTEPESILFCYKTGSRI | < -0.25 |
| VRRGCNLD | < -0.25 |
| LAV | < -0.25 |
| WETFIKGSDEGVDDGMSTAY | < -0.25 |
| LARFRENSNDWLLFTETQ | < -0.25 |
| VRLRGTRTTCGRA | < -0.25 |
| WTA | < -0.25 |
| SDTSLHELSDLHRRFITIT | < -0.25 |
| TWDDQSVTGSGQIKLYSSAF | < -0.25 |
| ASLGCEPLEGRGA | < -0.25 |
| DETYFFGRLA | < -0.25 |
| LWPRTQWRPHSSYETGPYKI | < -0.25 |
| GCLSLGNGRGSPVRLIGCDH | < -0.25 |
| GNQQVNAPHDKDTHEWHRRR | < -0.25 |
| VRTSHRIRRWFLRWSVTTNS | < -0.25 |
| QSQRDAQQI | -0.178 |
| KCTKGKPEPTSAAGARDSVL | < -0.25 |
| TRYGQKYRQ | -0.241 |

| Substance | growth estimate |
| --- | --- |
| QWSKQSARTYLNSDRVLLSG | < -0.25 |
| AATFWRLYGARADAEYRRAA | < -0.25 |
| QRGGVPK | < -0.25 |
| RGCAHRMKKLRFRRVEG | < -0.25 |
| PLEFLGALVP | < -0.25 |
| WPGRVEMLARVDYTDQRTKR | < -0.25 |
| DISHILFAAGSIYRRTTPGS | < -0.25 |
| AGTYVTVRRCNNHRLGQG | < -0.25 |
| LWTKLCTLIFYGGRFSALSQ | < -0.25 |
| SFQCRGN | < -0.25 |
| QREHSVIH | < -0.25 |
| PTFTLESS | < -0.25 |
| GSRRTGTEAVG | < -0.25 |
| SSRG | < -0.25 |
| LMCPLAETSPAARRGNRTPA | < -0.25 |
| HKEPVSTKRYL | < -0.25 |
| DPATGARRQQMRVRWELPPH | -0.229 |
| HAQVMLQSTSRFA | < -0.25 |
| GEGEICGISIKSVLAILVIV | < -0.25 |
| HSEGIGSPGGLEPPDLALLK | < -0.25 |
| FRHFKSRQSEPLLHLSRVGG | < -0.25 |
| SYVDIPGIRAGGFPRLKSSV | < -0.25 |
| ALA | < -0.25 |
| VNTVLAGSRARPVIFSAVCE | < -0.25 |
